The target in test [1] is T1, SmATG12 (Sordaria macrospora autophagy-associated ubiquitin-like protein ATG12) (Sordaria macrospora) (UniProt F7W503).
T1 sequence: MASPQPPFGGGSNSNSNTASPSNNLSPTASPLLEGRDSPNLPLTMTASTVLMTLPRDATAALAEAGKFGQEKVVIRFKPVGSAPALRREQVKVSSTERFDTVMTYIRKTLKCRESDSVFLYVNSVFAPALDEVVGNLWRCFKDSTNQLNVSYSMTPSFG
Description: condition: only SmATG7 as GAL4-AD fusion (prey) with SmATG12 as GAL4-BD fusion (bait); two-hybrid; GAL4 system: BD baits (pGBKT7 derivatives) in strain Y187 mated with AD preys (pGADT7 derivatives) in strain AH109, or both plasmids co-transformed into AH109; interaction read as growth on SD -Trp -Leu -His/-Ade; serial dilutions; 30°C, 3-5 days.

Test [2] addresses T1, SmATG12 (Sordaria macrospora autophagy-associated ubiquitin-like protein ATG12) (Sordaria macrospora). Kind of test: two-hybrid; GAL4 system: BD baits (pGBKT7 derivatives) in strain Y187 mated with AD preys (pGADT7 derivatives) in strain AH109, or both plasmids co-transformed into AH109; interaction read as growth on SD -Trp -Leu -His/-Ade; serial dilutions; 30°C, 3-5 days.
The target of test [3] is SmATG7 (Sordaria macrospora E1-like enzyme ATG7) (Sordaria macrospora). The test is described as above.

These are yes or no findings as the source states them, for the method shown. For part of these data: A result given as binding can be weak or reduced; the word gives no strength.

As for “SmATG7 (Sordaria macrospora E1-like enzyme ATG7)”, the binding entry in test [1] is given as “no binding”.

As for “SmATG8 (Sordaria macrospora ubiquitin-like protein ATG8)”, the binding result in test [2] is “no binding”.

B1: SmATG12 (Sordaria macrospora autophagy-associated ubiquitin-like protein ATG12) (protein, UniProt F7W503 1-159)
chain: T1 sequence
B1: in test [3], the binding result is “binds”.
